Results from publication PMC8505768.
Results are given in words; binding and its absence hold for the method and conditions named. Binding seen in cells or lysates may run through a third protein. Some entries that bind do so weakly or less than the wild type.

Target: T1, S100 Calcium Binding Protein A16 (human (endogenous in SGC-7901 and MGC-803)) (UniProt Q96FQ6)
T1 sequence: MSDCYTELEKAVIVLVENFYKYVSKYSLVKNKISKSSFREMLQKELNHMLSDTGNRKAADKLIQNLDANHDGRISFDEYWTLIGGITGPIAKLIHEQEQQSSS
Assay: co-IP; endogenous proteins; whole cell proteins of SGC-7901 and MGC-803 cells extracted by NP40 lysis; immunoprecipitation and Western blot

binding: binds
B1: Zonula Occludens-2 (protein, UniProt Q9UDY2 1-1190)
chain: MPVRGDRGFPPRRELSGWLRAPGMEELIWEQYTVTLQKDSKRGFGIAVSGGRDNPHFENGETSIVISDVLPGGPADGLLQENDRVVMVNGTPMEDVLHSFAVQQLRKSGKVAAIVVKRPRKVQVAALQASPPLDQDDRAFEVMDEFDGRSFRSGYSERSRLNSHGGRSRSWEDSPERGRPHERARSRERDLSRDRSRGRSLERGLDQDHARTRDRSRGRSLERGLDHDFGPSRDRDRDRSRGRSIDQDYERAYHRAYDPDYERAYSPEYRRGARHDARSRGPRSRSREHPHSRSPSPEPRGRPGPIGVLLMKSRANEEYGLRLGSQIFVKEMTRTGLATKDGNLHEGDIILKINGTVTENMSLTDARKLIEKSRGKLQLVVLRDSQQTLINIPSLNDSDSEIEDISEIESNRSFSPEERRHQYSDYDYHSSSEKLKERPSSREDTPSRLSRMGATPTPFKSTGDIAGTVVPETNKEPRYQEDPPAPQPKAAPRTFLRPSPEDEAIYGPNTKMVRFKKGDSVGLRLAGGNDVGIFVAGIQEGTSAEQEGLQEGDQILKVNTQDFRGLVREDAVLYLLEIPKGEMVTILAQSRADVYRDILACGRGDSFFIRSHFECEKETPQSLAFTRGEVFRVVDTLYDGKLGNWLAVRIGNELEKGLIPNKSRAEQMASVQNAQRDNAGDRADFWRMRGQRSGVKKNLRKSREDLTAVVSVSTKFPAYERVLLREAGFKRPVVLFGPIADIAMEKLANELPDWFQTAKTEPKDAGSEKSTGVVRLNTVRQIIEQDKHALLDVTPKAVDLLNYTQWFPIVIFFNPDSRQGVKTMRQRLNPTSNKSSRKLFDQANKLKKTCAHLFTATINLNSANDSWFGSLKDTIQHQQGEAVWVSEGKMEGMDDDPEDRMSYLTAMGADYLSCDSRLISDFEDTDGEGGAYTDNELDEPAEEPLVSSITRSSEPVQHEESIRKPSPEPRAQMRRAASSDQLRDNSPPPAFKPEPPKAKTQNKEESYDFSKSYEYKSNPSAVAGNETPGASTKGYPPPVAAKPTFGRSILKPSTPIPPQEGEEVGESSEEQDNAPKSVLGKVKIFEKMDHKARLQRMQELQEAQNARIEIAQKHPDIYAVPIKTHKPDPGTPQHTSSRPPEPQKAPSRPYQDTRGSYGSDAEEEEYRQQLSEHSKRGYYGQSARYRDTEL
